The supplement of paper PMC3682954
Several values for one entry are separate records, joined by “and”; a condition that tells them apart may be missing. Identical values can stand only once. Counter-ions that a name gives are not always drawn. ± gives the standard deviation of the averaged measurements. The list shows a part of the results. Repeats are few or missing, and single values can be far off.

Test system: RAW 264.7
Assay: cell viability (MTT) relative to vehicle control; higher = more viable cells
Details: stimulus: HMGB1 5 ug/ml, 18 h
[1] = compound concentration: 1 ug/ml

Row | SMILES | cell viability (compound concentration: 3 uM) | cell viability [1]
1 | O=[N+]([O-])c1ccc(O)c([N+](=O)[O-])c1 | 96.7% | 
2 | CCn1cnc2c(Nc3cccc(Cl)c3)nc(N[C@@H]3CCCC[C@@H]3N)nc21 | 97.8% | 
3 | Clc1ccc(N2CCN(Cc3c[nH]c4ncccc34)CC2)cc1 [L-745,870 hydrochloride] | 111% | 
4 | O=S1(=O)N(CCN2CC=C(c3c[nH]c4cc(F)ccc34)CC2)c2cccc3c2N1CCC3 | 105% | 
5 | CN1CC[C@]2(c3cccc(O)c3)Cc3nc4ccccc4cc3C[C@H]2C1 | 102% | 
6 | NCCc1c[nH]c2ccc(C(N)=O)cc12 [5-Carboxamidotryptamine maleate] | 108% | 
7 | NCCC(O)C(=O)NC1CC(N)C(OC2OC(CN)C(O)[C@H](O)[C@@H]2N)[C@H](OC2O[C@H](CO)[C@@H](O)[C@@H]2O)[C@@H]1O (stereo partly specified) [Butirosin disulfate salt] | 99.9% | 
8 | CN[C@@H](Cc1c[nH]c2ccccc12)C(=O)O [L-abrine] |  | 92.2%
9 | C=C1[C@@H](C)[C@H]2[C@H](Cc3ccccc3)NC(=O)[C@]23OC(=O)/C=C/C(=O)CCC[C@@H](C)C/C=C/[C@H]3[C@@H]1O | 84.4% | 
10 | Nc1ccc([As](=O)(O)O)cc1 | 105% | 
11 | O=C1Nc2ccc(Cl)cc2C(c2ccccc2Cl)=NC1O (stereo unspecified) [Lorazepam] | 94.8% | 
12 | CCCCCCC1C(=O)OC(C)C(NC(=O)c2cccc(NC=O)c2O)C(=O)OC(C)C1OC(=O)CC(C)C (stereo unspecified) [Animicin A] |  | 79.5%
13 | O=C1CC[C@@]2(O)[C@H]3Cc4ccc(O)c5c4[C@@]2(CCN3CC2CC2)[C@H]1O5 [Naltrexone hydrochloride dihydrate] | 97.8% | 
14 | O=C1CC[C@@]2(O)[C@H]3Cc4ccc(O)c5c4[C@@]2(CCN3CC2CC2)[C@H]1O5 [Naltrexone hydrochloride] | 112% | 
15 | O=C1CC[C@@]2(O)[C@H]3Cc4ccc(O)c5c4[C@@]2(CCN3CC2CC2)[C@H]1O5 [Naltrexone] | 97% | 
16 | O=C1CC[C@@]2(O)[C@H]3Cc4ccc(O)c5c4[C@@]2(CCN3CC2CC2)[C@H]1O5 | 101% | 
17 | NC(=O)c1cc([N+](=O)[O-])cc([N+](=O)[O-])c1 | 104 ± 11% | 
18 | Cn1c(CCCC(=O)O)nc2cc(N(CCCl)CCCl)ccc21 [Bendamustine hydrochloride] | 104% | 
19 | CN1CCc2cc(O)cc3c2[C@H]1Cc1ccc(O)c(O)c1-3 [R(-)-2,10,11-Trihydroxyaporphine hybrobromide] | 95.9% | 
20 | CN[C@@H]1[C@@H](O)[C@@H](O[C@@H]2[C@@H](O)[C@H](O[C@H]3O[C@H](CN)CC[C@H]3N)[C@@H](N)C[C@H]2N)OC[C@]1(C)O.CN[C@@H]1[C@@H](O)[C@@H](O[C@@H]2[C@@H](O)[C@H](O[C@H]3O[C@H]([C@@H](C)N)CC[C@H]3N)[C@@H](N)C[C@H]2N)OC[C@]1(C)O.CN[C@@H]1[C@@H](O)[C@@H](O[C@@H]2[C@@H](O)[C@H](O[C@H]3O[C@H]([C@@H](C)NC)CC[C@H]3N)[C@@H](N)C[C@H]2N)OC[C@]1(C)O [Gentamicine sulfate] | 100% | 

Row | SMILES | cell viability (compound concentration: 3 uM) | cell viability [1]
21 | CN[C@@H]1[C@@H](O)[C@@H](O[C@@H]2[C@@H](O)[C@H](O[C@H]3O[C@H](CN)CC[C@H]3N)[C@@H](N)C[C@H]2N)OC[C@]1(C)O.CN[C@@H]1[C@@H](O)[C@@H](O[C@@H]2[C@@H](O)[C@H](O[C@H]3O[C@H]([C@@H](C)N)CC[C@H]3N)[C@@H](N)C[C@H]2N)OC[C@]1(C)O.CN[C@@H]1[C@@H](O)[C@@H](O[C@@H]2[C@@H](O)[C@H](O[C@H]3O[C@H]([C@@H](C)NC)CC[C@H]3N)[C@@H](N)C[C@H]2N)OC[C@]1(C)O | 102% | 
22 | O=C(O)CCCO | 107% | 
23 | N[C@]1(C(=O)O)CC[C@H](C(=O)O)C1 (racemic) [trans-(±)-ACPD] | 113% | 
24 | CC(NC(C)(C)C)C(=O)c1cccc(Cl)c1 (stereo unspecified) [Amfebutamone] | 103% | 
25 | CC(NC(C)(C)C)C(=O)c1cccc(Cl)c1 (stereo unspecified) | 98.3% and 87% and 112% | 
26 | CC(NC(C)(C)C)C(=O)c1cccc(Cl)c1 (stereo unspecified) [Bupropion hydrochloride] | 106 ± 10% | 
27 | CN(C)Cc1c[nH]c2c(OCc3ccccc3)cccc12 [7-Benzyloxygramine] |  | 100%
28 | Oc1ccc2c3c1O[C@H]1c4[nH]c5ccccc5c4C[C@@]4(O)[C@@H](C2)N(CC2CC2)CC[C@]314 [Naltrindole] | 108 ± 14% | 
29 | Oc1ccc2c3c1O[C@H]1c4[nH]c5ccccc5c4C[C@@]4(O)[C@@H](C2)N(CC2CC2)CC[C@]314 [Naltrindole hydrochloride] | 101% | 
30 | NCC(CC(=O)O)c1ccc(Cl)cc1 (stereo unspecified) | 108% | 
31 | CN1CC[C@@]2(C)c3cc(O)ccc3N(C)C12 (single isomer, unassigned; (-)) [(-)-Eseroline fumarate] | 105% | 97.6%
32 | CC(C)[C@]12O[C@H]1[C@@H]1O[C@]13[C@]1(O[C@H]1C[C@H]1C4=C(CC[C@@]13C)C(=O)OC4)[C@@H]2O | 2.31% | 
33 | CC(=O)[C@H]1CC[C@H]2[C@@H]3CC[C@H]4C[C@H](O)CC[C@]4(C)[C@H]3CC[C@]12C [5alpha-Pregnan-3alpha-ol-20-one] | 111% | 
34 | C=CCSSCC=C | 137% | 
35 | CN1CCC2(C)c3cc(O)ccc3N(C)C12 (single isomer, unassigned; (-)) [(-)-Eseroline, Fumarate salt] |  | 94.9%
36 | CN1CCC2(C)c3cc(O)ccc3N(C)C12 (single isomer, unassigned; (-)) [(-)-Eseroline fumarate salt] | 99.3% | 
37 | NC1=NC(=O)C(c2ccccc2)O1 (stereo unspecified) [Pemoline] | 96.2% | 
38 | CCOC(=O)C1(c2ccccc2)CCN(CCC(C#N)(c2ccccc2)c2ccccc2)CC1 | 99.7% | 
39 | CC[C@@H]1C=CC=CC[C@H](C)[C@@H](O)[C@@H](C)C(=O)[C@H](C)[C@@H](O)[C@H](C)C(=O)[C@H](C)[C@@H](O)[C@H](C)C=CC(=O)O[C@H]2[C@@H](C)[C@@H](CC1)O[C@@]1(CC[C@@H](C)[C@@H](C[C@H](C)O)O1)[C@@H]2C | 84.2% | 
40 | CC(=O)[C@H]1CC[C@H]2[C@@H]3CC[C@H]4C[C@](C)(O)CC[C@]4(C)[C@H]3CC[C@]12C [Ganaxolone] | 107% | 
